Results: patent US20040204561A1 (priority 2002, published 2004)
Plain letter strings leave the end groups untold.

Test: peptide made by a vendor
Conditions: whole synthesis, HPLC

## AEAEAKAKAEAEAKAK (N-terminal glycine linker with bbDTPA chelator; Targeted aggregate peptide)
  purity (crude or final not stated): 90%
